Measured values from US20240109968A1 (NEW YORK UNIVERSITY, published 2024).
These are yes or no findings as the source states them, for the method shown. Some entries that bind do so weakly or less than the wild type.

Assays:
[1] = target: human galectin-9 on the cell surface (CRL-2134 cell line; cells of patient tumor organoid fractions) (human) (UniProt O00182); assay: flow cytometry on cells of S2 and S3 fractions of human tumor biopsies
[2] = target: human galectin-9 on the cell surface (CRL-2134 cell line; cells of patient tumor organoid fractions) (human) (UniProt O00182); assay: flow cytometry, colorectal carcinoma biopsy, S3 fraction, CD3+ cells; readout % Gal9+ cells
[3] = target: human galectin-9 on the cell surface (CRL-2134 cell line; cells of patient tumor organoid fractions) (human) (UniProt O00182); assay: flow cytometry, colorectal carcinoma biopsy, S2 fraction, CD3+ cells; readout % Gal9+ cells
[4] = target: human galectin-9 on the cell surface (CRL-2134 cell line; cells of patient tumor organoid fractions) (human) (UniProt O00182); assay: flow cytometry, colorectal carcinoma biopsy, S3 fraction, CD11b+ cells; readout % Gal9+ cells
[5] = target: human galectin-9 on the cell surface (CRL-2134 cell line; cells of patient tumor organoid fractions) (human) (UniProt O00182); assay: flow cytometry, colorectal carcinoma biopsy, S3 fraction, EpCam+ cells; readout % Gal9+ cells
[6] = target: human galectin-9 on the cell surface (CRL-2134 cell line; cells of patient tumor organoid fractions) (human) (UniProt O00182); assay: flow cytometry, colorectal carcinoma biopsy, S2 fraction, CD11b+ cells; readout % Gal9+ cells
[7] = target: human galectin-9 on the cell surface (CRL-2134 cell line; cells of patient tumor organoid fractions) (human) (UniProt O00182); assay: flow cytometry, colorectal carcinoma biopsy, S2 fraction, EpCam+ cells; readout % Gal9+ cells
[8] = target: human galectin-9 on the cell surface (CRL-2134 cell line; cells of patient tumor organoid fractions) (human) (UniProt O00182); assay: flow cytometry, pancreatic adenocarcinoma biopsy, S3 fraction, CD3+ cells; readout % Gal9+ cells
[9] = target: human galectin-9 on the cell surface (CRL-2134 cell line; cells of patient tumor organoid fractions) (human) (UniProt O00182); assay: flow cytometry, pancreatic adenocarcinoma biopsy, S2 fraction, CD3+ cells; readout % Gal9+ cells
[10] = target: human galectin-9 on the cell surface (CRL-2134 cell line; cells of patient tumor organoid fractions) (human) (UniProt O00182); assay: flow cytometry, pancreatic adenocarcinoma biopsy, S3 fraction, CD11b+ cells; readout % Gal9+ cells
[11] = target: human galectin-9 on the cell surface (CRL-2134 cell line; cells of patient tumor organoid fractions) (human) (UniProt O00182); assay: flow cytometry, pancreatic adenocarcinoma biopsy, S3 fraction, EpCam+ cells; readout % Gal9+ cells
[12] = target: human galectin-9 on the cell surface (CRL-2134 cell line; cells of patient tumor organoid fractions) (human) (UniProt O00182); assay: flow cytometry, pancreatic adenocarcinoma biopsy, S2 fraction, CD11b+ cells; readout % Gal9+ cells
[13] = target: human galectin-9 on the cell surface (CRL-2134 cell line; cells of patient tumor organoid fractions) (human) (UniProt O00182); assay: flow cytometry, pancreatic adenocarcinoma biopsy, S2 fraction, EpCam+ cells; readout % Gal9+ cells
[14] = target: human galectin-9 on the cell surface (CRL-2134 cell line; cells of patient tumor organoid fractions) (human) (UniProt O00182); assay: flow cytometry, second pancreatic adenocarcinoma biopsy, S3 fraction, CD3+ cells; readout % Gal9+ cells
[15] = target: human galectin-9 on the cell surface (CRL-2134 cell line; cells of patient tumor organoid fractions) (human) (UniProt O00182); assay: flow cytometry, second pancreatic adenocarcinoma biopsy, S2 fraction, CD3+ cells; readout % Gal9+ cells
[16] = target: human galectin-9 on the cell surface (CRL-2134 cell line; cells of patient tumor organoid fractions) (human) (UniProt O00182); assay: flow cytometry, second pancreatic adenocarcinoma biopsy, S3 fraction, CD11b+ cells; readout % Gal9+ cells
[17] = target: human galectin-9 on the cell surface (CRL-2134 cell line; cells of patient tumor organoid fractions) (human) (UniProt O00182); assay: flow cytometry, second pancreatic adenocarcinoma biopsy, S3 fraction, EpCam+ cells; readout % Gal9+ cells
[18] = target: human galectin-9 on the cell surface (CRL-2134 cell line; cells of patient tumor organoid fractions) (human) (UniProt O00182); assay: flow cytometry, second pancreatic adenocarcinoma biopsy, S2 fraction, CD11b+ cells; readout % Gal9+ cells
[19] = target: human galectin-9 on the cell surface (CRL-2134 cell line; cells of patient tumor organoid fractions) (human) (UniProt O00182); assay: flow cytometry, second pancreatic adenocarcinoma biopsy, S2 fraction, EpCam+ cells; readout % Gal9+ cells
[20] = target: cynomolgus monkey galectin-9 CRD2 domain (cynomolgus monkey); assay: summary of in vitro binding studies
[21] = target: Galectin-9 on the HuProt Human Proteome Microarray (human) (UniProt O00182); assay: HuProt array, High-Spec antibody cross-reactivity assay
[22] = target: human galectin-9 on the cell surface (CRL-2134 cell line; cells of patient tumor organoid fractions) (human) (UniProt O00182); assay: cell surface staining, flow cytometry on CRL-2134 cells
[23] = target: Galectin-9 on the HuProt Human Proteome Microarray (human) (UniProt O00182); assay: CDI HuProt Human Proteome Microarray, fluorescent secondary antibody
[24] = target: cynomolgus monkey galectin-9 CRD2 domain (cynomolgus monkey); assay: bead-based binding assay
[25] = target: human galectin-9 on the cell surface (CRL-2134 cell line; cells of patient tumor organoid fractions) (human) (UniProt O00182); assay: cell-based binding, CRL-2134 cells

Measured: binding

B1: G9.2-17 Fab (Fab, V domains shown)
VH: EVQLVESGGGLVQPGGSLRLSCAASGFTVSSSSIHWVRQAPGKGLEWVAYISSSSGYTYYADSVKGRFTISADTSKNTAYLQMNSLRAEDTAVYYCARYWSYPSWWPYRGMDYWGQGTLVTVSS
VL: DIQMTQSPSSLSASVGDRVTITCRASQSVSSAVAWYQQKPGKAPKLLIYSASSLYSGVPSRFSGSRSGTDFTLTISSLQPEDFATYYCQQSSTDPITFGQGTKVEIKR
not listed: [20] | [21] | [22] | [23] | [24] | [25]
binds: all other assays above

B2: anti-Galectin-9 antibody G9.2-17 (IgG4) (antibody, V domains shown)
VH: EVQLVESGGGLVQPGGSLRLSCAASGFTVSSSSIHWVRQAPGKGLEWVAYISSSSGYTYYADSVKGRFTISADTSKNTAYLQMNSLRAEDTAVYYCARYWSYPSWWPYRGMDYWGQGTLVTVSS
VL: DIQMTQSPSSLSASVGDRVTITCRASQSVSSAVAWYQQKPGKAPKLLIYSASSLYSGVPSRFSGSRSGTDFTLTISSLQPEDFATYYCQQSSTDPITFGQGTKVEIKR
notes: Human IgG4 with S228P (EU); also called G9.2-17(Ig4); G9.2-17 hIgG4 Fab Arm Exchange mut
binds: [20] | [21] | [22] | [23]

B3: G9.2-17 mIgG1 (mouse IgG1 version of G9.2-17) (antibody, V domains shown)
VH: EVQLVESGGGLVQPGGSLRLSCAASGFTVSSSSIHWVRQAPGKGLEWVAYISSSSGYTYYADSVKGRFTISADTSKNTAYLQMNSLRAEDTAVYYCARYWSYPSWWPYRGMDYWGQGTLVTVSS
VL: DIQMTQSPSSLSASVGDRVTITCRASQSVSSAVAWYQQKPGKAPKLLIYSASSLYSGVPSRFSGSRSGTDFTLTISSLQPEDFATYYCQQSSTDPITFGQGTKVEIKR
binds: [24] | [25]
